Results on one compound are retold here after PMC5923485 (Viruses, 2018).

Some results are limits rather than exact numbers.

By EC50 is commonly meant the concentration that produces a half-maximal response. Higher therefore signals a less potent agent.

For this assay, the system named is RVFV MP12 ∆NSs-Luc. Briefly: microbe, parasite or virus in culture. It counts as cell-based. The conditions noted are these: Rift Valley fever virus, 18 h.

`C[S+]([O-])c1ccc(-c2nc(-c3ccncc3)c(-c3ccc(F)cc3)[nH]2)cc1` (stereo not shown) [SB203580] yielded an EC50 of over 100 µM.
